In patent US6680058B1, “Compositions and methods for contraception in or sterilization of mammals” (Board of Supervisors of Louisiana State University and …, priority 1997, dated 2004):
For some of these results: At least one peptide structure holds a part that was inferred or is arguable (an end, a ring closure or a residue). For some of these results: At least one compound was matched to its structure with a doubt left.

Assays:
GnRH receptor = biological target: T1, GnRH receptor (Homo sapiens, UniProt P30968); details: reported; see U.S. Pat. No. 5,488,036; cited from earlier work
T1 sequence (P30968 1-328): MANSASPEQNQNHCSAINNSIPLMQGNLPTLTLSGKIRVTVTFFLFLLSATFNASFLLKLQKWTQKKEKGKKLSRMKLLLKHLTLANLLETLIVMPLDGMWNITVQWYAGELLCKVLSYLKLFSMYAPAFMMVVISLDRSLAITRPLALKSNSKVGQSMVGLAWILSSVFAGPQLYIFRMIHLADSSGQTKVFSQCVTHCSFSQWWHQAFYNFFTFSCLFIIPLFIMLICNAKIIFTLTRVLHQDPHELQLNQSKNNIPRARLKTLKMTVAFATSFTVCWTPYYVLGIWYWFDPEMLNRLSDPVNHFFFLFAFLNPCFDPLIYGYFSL

[1] = tested on: sexually mature, Sprague-Dawley female rats; test: Sexually mature Sprague-Dawley female rats, single intravenous treatment, necropsy 48 or 96 hours after treatment, H&E and PAS stain (Examples 15-22); type: in vivo, rat; details: 334 μg in 200 μL saline i.v.
Description: Eight sexually mature, Sprague-Dawley female rats were randomly assigned to one of eight treatments. Each group of rats received a single treatment intravenously, as described below. Rats were sacrificed and necropsied either 48 or 96 hours after treatment. The ovaries, uterus, pancreas, liver, spleen, lungs, heart, thyroid, and adrenal glands were fixed in 10% buffered formalin; sectioned; and stained with H&E (hematoxylin and eosin) stain; except that the pituitary glands were stained with PAS (periodic acid-Schiff) stain with no counter-stain. The treatments were selected so that each animal received an equimolar amount of the compound with which it was treated.

[2] = tested on: pituitary basophilic (gonadotropic) cells; test: Adult female rat pituitary gland sections in tissue culture, histology ten hours after treatment (Examples 1-6); type: cell-based; details: 5 nanograms of GnRH per mL of medium; 37° C; fixed ten hours after treatment
Description: The pituitary gland of an adult female rat was harvested and divided into six sections of approximately equal size. One section was placed in each of six wells containing tissue culture medium at 37° C. A different treatment was applied to each well, as described below. Ten hours after treatment, the tissue from each well was fixed, and the histology of each was examined microscopically.

[3] = tested on: sexually mature, mixed breed, female rats; test: Sexually mature female rats, double intravenous treatment, necropsy two weeks after treatment (Examples 9-14); type: in vivo, rat; details: Treatment 13: GnRH 162 μg i.v., repeated after 24 hours
Description: Eighteen sexually mature, mixed breed, female rats were randomly assigned to one of six groups containing three rats each. Each group of rats received a double treatment intravenously, as described below. Two weeks after the treatment, the rats were sacrificed and necropsied. The reproductive and endocrine organs were sectioned, weighed, and examined histologically.

Compound	binding affinity to the GnRH receptor compared with GnRH (GnRH receptor)	PAS-positive cells in the pituitary glands [1]	histology of pituitary tissue after treatment [2]	ovarian function [3]
CC(C)C[C@H](NC(=O)[C@@H](Cc1ccc2ccccc2c1)NC(=O)[C@H](Cc1ccc(O)cc1)NC(=O)[C@H](CO)NC(=O)[C@H](Cc1c[nH]c2ccccc12)NC(=O)[C@H](Cc1c[nH]cn1)NC(=O)[C@@H]1CCC(=O)N1)C(=O)N[C@@H](CCCNC(=N)N)C(=O)N1CCC[C@H]1C(=O)NCC(N)=O [nafarelin]	greater binding affinity to the GnRH receptor than does GnRH itself			
CC(C)C[C@H](NC(=O)CNC(=O)[C@H](Cc1ccc(O)cc1)NC(=O)[C@H](CO)NC(=O)[C@H](Cc1c[nH]c2ccccc12)NC(=O)[C@H](Cc1cnc[nH]1)NC(=O)[C@@H]1CCC(=O)N1)C(=O)N[C@@H](CCCNC(=N)N)C(=O)N1CCC[C@H]1C(=O)NCC(N)=O [GnRH, gonadotropin-releasing hormone, reference compound]		normal number of PAS-positive cells	normal; a small degree of cellular vacuolization was noted	normal ovarian function
